## Library screen at single concentrations

A: 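Whole-cell growth test on Mycobacterium tuberculosis, read after 4 days in a medium based on cholesterol and the lipid DPPC; the read-out is not stated. Tested at 50 µM. The record gives no direction; compounds that gave an IC50 in retests scored well above the rest, so higher reads as more growth inhibition. About 69,000 compounds were tested under these conditions; 0.54% (about 370) showed 50% or more at least once.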
B: 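Phenotypic screen: M. tuberculosis growth, glucose 7H9 medium, 3 days; the read-out is not stated. Compounds at 50 µM. Higher reads as more growth inhibition (inferred: compounds with an IC50 in retests scored well above the rest). Size under these conditions: about 69,000 compounds, about 760 of them at 50% or above in at least one test.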

Results are given as percent effect. How 0% and 100% were set is not recorded. Most values in the screen are low, and negative values occur. This is an unselected part of the compounds tested. Two or more numbers in one place are separate tests of the same structure; such repeats can differ widely.

structure: CC1(C)CC(N(Cc2cccnc2)Cc2cccnc2)CC(C)(C)N1.O=C(O)CC(O)(CC(=O)O)C(=O)O
A: -12.6%
B: 23.36%

structure: CC(C)Cc1cc(C(=O)N2CCCN(c3ncccn3)CC2)[nH]n1
A: -9.178%
B: -2.477%

structure: Cc1ccc(CN2C[C@H](O)C[C@H]2c2nc(-c3ccc(F)cc3)no2)cc1
A: 11.76%
B: 31.59% and 3.72%

structure: [H][C@@]12CS(=O)(=O)C[C@]1([H])N(Cc1cccc(C)n1)CCN2C(=O)N(C)C
A: -20.13%
B: -17.27%

structure: O=C(CCc1cccs1)NCC1CCCN1c1cccnn1 (configuration not stated)
A: 8.249% and 9.185%
B: 8.929%

structure: CC1CCN(S(=O)(=O)N2CCn3cccc3C2C)CC1 (configuration not stated)
A: 5.81% and -4.641%
B: 19.66%

structure: O=C(O)C(F)(F)F.[H][C@]12CC[C@@]3(N=C(c4ccccc4)NC3=O)[C@@]1([H])CN(Cc1ccccc1)C2
A: 1.988%
B: 5.842%

structure: CCCN1CCC(Nc2nc(CC)ns2)CC1
A: -9.049%
B: -2.222%

structure: NC(=O)CN1CCC(NC(=O)COc2ccc(Cl)c(Cl)c2)CC1
A: 2.959%
B: 15.28%

structure: CN1CCCCC1CCC(=O)NCCCn1nccc1C1CC1 (configuration not stated)
A: -23.17%
B: -16.04%

structure: COc1cc(N2CC[C@H](O)[C@@H]2Cc2cccnc2)ncn1
A: -11.7%
B: 16.21%

structure: Cc1nn(C)cc1-c1cc(C(=O)NCC(C)(C)c2cccc(F)c2)n[nH]1
A: 0.97% and 10.06%
B: 15.68%

structure: CC(C)c1cc(NC(=O)c2ccncc2)[nH]n1
A: -16.65%
B: 11.09%

structure: CCC[C@@H]1CN(Cc2ccccc2C#N)C[C@H]1NC(C)=O
A: -6.824%
B: 7.425%

structure: O=C(O)C(F)(F)F.[H][C@]12CCN(S(=O)(=O)CC)CC[C@@]1([H])S(=O)(=O)CCN2Cc1cccc(C)n1
A: 11.55%
B: -27.83% and 2.767%

structure: CCC(O)CN1CCN(C(=O)C2(c3ccc(C)c(OC)c3)CC2)CC1 (configuration not stated)
A: -11.56%
B: -2.33%

structure: COc1c(C)cnc(CN(C)C(=O)c2ccccc2F)c1C
A: -6.099%
B: 4.603%

structure: Cl.c1cnc2c(c1)cc(C1CCOCC1)n2CCN1CCOCC1
A: -20.69%
B: 11.3%

structure: Cc1cc(C(=O)N2CCCC(n3cncn3)C2)c(C)n1C1CC1 (configuration not stated)
A: -2.773%
B: 2.51%

structure: Cc1nc2ccccc2n1CCNCc1cccc(C#N)c1
A: -6.503%
B: -11.95%

structure: CN(C)C(=O)N1Cc2nnn(C)c2C(COCc2cccnc2)C1.O=C(O)C(F)(F)F (configuration not stated)
A: -8.234%
B: -3.524% and 11.6%

structure: O=C(CCNC(=O)c1ccc(Cl)cc1)NCc1nc(C2CC2)no1
A: -9.663%
B: -7.324%

structure: CC(C)c1noc(CN2CCCC2c2noc(C(C)C)n2)n1 (configuration not stated)
A: -6.977%
B: 28.92%

structure: O=C(NC1CC1)c1ccnc(N2CCOC(c3ccc(Cl)cc3)C2)c1 (configuration not stated)
A: 24.02% and 18.5%
B: 20.19%

structure: CCCOc1ncccc1CNc1nnc(C)c(C)c1C#N
A: 19.25%
B: 10.13%

structure: CN1CCC(N(C)C[C@H]2CC[C@@H](Cc3cccc(CO)c3)O2)CC1
A: -19.67%
B: -25.85%

structure: c1ccc(-n2cc(CNCC3CCCN3c3cccnn3)cn2)cc1 (configuration not stated)
A: -3.217%
B: 31.32%

structure: O=C(Cn1cccn1)NCC1CCN(Cc2cc3ccccc3[nH]2)C1 (configuration not stated)
A: -8.264%
B: 5.859%

structure: Cc1cnc(NCc2ccncc2)nc1-c1cnn(C)c1
A: -23.05%
B: -12.14% and -16.75%

structure: CCc1nc2n(n1)CCCC2Nc1nc(C(C)C)ns1 (configuration not stated)
A: 7.218%
B: 16.06%

structure: Fc1cc(CNCc2ccc3c(c2)CCO3)ccc1N1CCOCC1
A: 14.5%
B: 11.2%

structure: CC(C)(C)[S+]([O-])CCNC(=O)c1ccc(Cl)c2cccnc12 (configuration not stated)
A: 2.454%
B: 10.16%

structure: O=c1[nH]nc(CNc2cncc(Br)c2)[nH]1
B: -4.857%

structure: CC(=O)c1cc(CN2CCCC23CCN(c2ccccn2)CC3)cs1
A: -3.209%
B: -3.113%

structure: CC(NC(=O)C1=NN(C)C(=O)CC1)c1ccc(F)cc1F (configuration not stated)
A: -11.79%
B: 15.56% and 17.06%

structure: O=C(NCC1CCOC1)N1CCN(c2ncccn2)CC1 (configuration not stated)
A: -3.25%
B: -3.174%

structure: CC(=O)N1CCC(c2nccnc2Nc2ncc(C)s2)CC1
A: 25.91%
B: 36.14%

structure: O=C(NC[C@H]1OC[C@@H](NC2CCCCC2)[C@@H]1O)Nc1ccccc1
A: -30.72%
B: -7.497% and -47.81%

structure: CC1=C(C#N)C(=O)NC(=O)/C1=C\c1c(C)nn(-c2ccc(C)cc2)c1O
A: -2.406%
B: -5.199%

structure: COCC1CN(Cc2ccc(F)cc2)Cc2nnn(CC3CC3)c21.O=C(O)C(F)(F)F (configuration not stated)
A: -9.569%
B: 1.354% and 4.353%

structure: Cc1nc(C2CCCN(C(=O)C(C)(C)n3cc(Cl)cn3)C2)no1 (configuration not stated)
A: -1.247%
B: 13.73%

structure: Cc1cc(CSCc2csc(CS(C)(=O)=O)n2)no1
A: 1.719%
B: 5.122%

structure: Cc1cc(=O)n(CC(=O)Nc2ccc(Cl)cc2)nc1C
A: 9.925% and -0.7667%
B: 6.768%

structure: CNC(=O)CSc1cnn(CC(=O)Nc2cccc(Cl)c2C)c(=O)c1Cl
A: -28.99%
B: -4.571% and -26.05%

structure: CN1CCCN(C(=O)NCCNc2ncccn2)CC1
A: -39.15%
B: -59.63%

Repeated from the top, 5 entries:

* CC1(C)CC(N(Cc2cccnc2)Cc2cccnc2)CC(C)(C)N1.O=C(O)CC(O)(CC(=O)O)C(=O)O | A: -12.6%; B: 23.36%
* CC(C)Cc1cc(C(=O)N2CCCN(c3ncccn3)CC2)[nH]n1 | A: -9.178%; B: -2.477%
* Cc1ccc(CN2C[C@H](O)C[C@H]2c2nc(-c3ccc(F)cc3)no2)cc1 | A: 11.76%; B: 31.59% and 3.72%
* [H][C@@]12CS(=O)(=O)C[C@]1([H])N(Cc1cccc(C)n1)CCN2C(=O)N(C)C | A: -20.13%; B: -17.27%
* O=C(CCc1cccs1)NCC1CCCN1c1cccnn1 (configuration not stated) | A: 8.249% and 9.185%; B: 8.929%

Source: ChEMBL document CHEMBL3988442, “University of Dundee, Small-Polar-MMV Screening Library” (2021).